# In the supplement of paper PMC12823440, “Inhibitors supercharge kinase turnover through native proteolytic circuits” (Nature, 2025):
# Chains of the proteins cited; added tags and fusions are not shown.
# UniProt P31152, whole entry: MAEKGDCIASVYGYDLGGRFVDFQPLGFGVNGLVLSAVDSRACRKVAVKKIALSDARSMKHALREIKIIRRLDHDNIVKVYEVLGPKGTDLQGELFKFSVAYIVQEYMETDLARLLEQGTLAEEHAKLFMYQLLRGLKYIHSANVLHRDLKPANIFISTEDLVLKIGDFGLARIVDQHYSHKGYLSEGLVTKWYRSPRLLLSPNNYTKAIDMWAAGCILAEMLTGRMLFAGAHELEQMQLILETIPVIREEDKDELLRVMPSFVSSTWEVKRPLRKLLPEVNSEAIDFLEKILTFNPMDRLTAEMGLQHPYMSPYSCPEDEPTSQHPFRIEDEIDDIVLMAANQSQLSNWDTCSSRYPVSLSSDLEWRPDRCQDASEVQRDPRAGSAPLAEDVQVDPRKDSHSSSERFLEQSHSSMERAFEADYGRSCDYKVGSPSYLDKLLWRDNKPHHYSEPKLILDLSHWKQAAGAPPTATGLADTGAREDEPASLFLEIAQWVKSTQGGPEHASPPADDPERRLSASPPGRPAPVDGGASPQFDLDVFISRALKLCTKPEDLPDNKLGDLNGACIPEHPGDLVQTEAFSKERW
# Where a name gives a salt, the structure may show the parent alone. Some of the results follow. The calls rarely recur for the same compound in another form.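 Kinases, fused to nanoluciferase, were expressed in K562 cells; luminescence was measured every 4 h from 2 to 18 h as percent of control (DMSO = 100%, positive control = 0%). A time point is decreased if signal falls significantly (2 sigma). Hits were called by the authors by a rule that is not shown; the count of time points alone does not decide it.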
# Target: MAPK4 (UniProt P31152)
# Experiment: kinase-Nluc reporter destabilization hit call (1 = scored as downregulated) (binary); higher = compound decreases kinase abundance
# Conditions: K562; 2-18 h
row,SMILES,kinase-Nluc reporter destabilization hit call
1,C=CC(=O)N1CCC[C@@H](n2c(=O)n(-c3ccc(Oc4ccccc4)cc3)c3c(N)nccc32)C1 [Tolebrutinib] (10 µM),inactive: 0
2,C[C@]1(O)C[C@@](N)(c2ccc(-c3nc4n(c3-c3ccccc3)COc3ccncc3-4)cc2)C1 [TAS-117 (hydrochloride)] (10 µM),inactive: 0
3,CCOC(=O)C1=C[C@]2(CC)CCCN3CCc4c(n1c1ccccc41)[C@@H]32 [Vinpocetine] (10 µM),inactive: 0
4,CC(C)(C)NS(=O)(=O)c1cncc(-c2cc(F)c3nc(N)nn3c2)c1 (10 µM),inactive: 0
5,CC(C)(C)c1ccc(C(=O)Nc2cn3cc(-n4ccnc4)ccc3n2)cc1 (10 µM),inactive: 0
6,Cc1nc(NC(=O)N2CCC[C@H]2C(N)=O)sc1-c1csc(C(C)(C)C)n1 (10 µM),inactive: 0
7,N#Cc1cn([C@@H]2O[C@H](CO)[C@@H](O)[C@H]2O)c2nc[nH]c(=O)c12 [Jaspamycin] (10 µM),inactive: 0
8,Cc1ccc(-c2csc(Cn3nc(CC4OCCCO4)c4ccccc4c3=O)n2)cc1 (10 µM),inactive: 0
9,CNC(=O)c1c(C)oc2cc(Oc3ncnc4cc(OC)c(OC)cc34)ccc12 [Fruquintinib] (10 µM),inactive: 0
10,O=S(=O)(N=Cc1c(O)ccc2ccccc12)c1cccs1 (10 µM),inactive: 0
11,NC(=O)c1cccc2c(N[C@H](CN3CCC3)c3ccc(Cl)c(C(F)(F)F)c3)ncnc12 (10 µM),inactive: 0
12,CN1CCC(c2ccccc2CC(C)(C)Nc2nc(N3CCOCC3)nc(-n3c(S(C)(=O)=O)nc4ccccc43)n2)CC1 (10 µM),inactive: 0
13,O=c1ccc2cc(O)c(O)cc2o1 [Esculetin] (10 µM),inactive: 0
14,O=C(Nc1nc2cccc(-c3ccc(CN4CCS(=O)(=O)CC4)cc3)n2n1)C1CC1 [Filgotinib] (2.5 µM),inactive: 0
15,CC(C)(O)c1cc2nc(-c3cnc(N)nc3)nc(N3CCOCC3)c2s1 (2.5 µM),inactive: 0
16,Cn1cc(-c2ccc3ncc(Cc4ccc5ncccc5c4)n3n2)cn1 (10 µM),inactive: 0
17,"CC(=O)c1cc(O)ccc1O [2,5-Dihydroxyacetophenone] (10 µM)",inactive: 0
18,COc1ccc(COc2cc3oc(=O)c4cc(C(C)O)ccc4c3cc2OC)cc1 (stereo not drawn) [Palomid 529] (2.5 µM),inactive: 0
19,O=C(CC(c1ccccc1)C(C(=O)O)C(=O)O)c1ccc(C(F)(F)F)cc1 (stereo not drawn) (10 µM),inactive: 0

# Looked up above:
# Cn1cc(-c2ccc3ncc(Cc4ccc5ncccc5c4)n3n2)cn1 (10 µM) | kinase-Nluc reporter destabilization hit call: inactive: 0
# CCOC(=O)C1=C[C@]2(CC)CCCN3CCc4c(n1c1ccccc41)[C@@H]32 [Vinpocetine] (10 µM) | kinase-Nluc reporter destabilization hit call: inactive: 0

# The results go on:

row,SMILES,kinase-Nluc reporter destabilization hit call
1,CC(C)[C@H](CO)Nc1nc(Nc2ccc(C(=O)O)c(Cl)c2)c2ncn(C(C)C)c2n1 [Purvalanol B] (10 µM),inactive: 0
2,COc1cc2nccc(Oc3ccc(NC(=O)Nc4ccc(F)cc4F)c(F)c3)c2cc1OC (10 µM),inactive: 0
3,N#C/C(=C\c1ccc[nH]1)c1ccc(Cl)c(Cl)c1 (2.5 µM),inactive: 0
4,O=c1cc(-c2ccc(O)cc2)oc2cc(O)c(O)c(O)c12 [Scutellarein] (10 µM),inactive: 0
5,CC(C)n1nc(C#Cc2ccccc2)c2c(N)ncnc21 (10 µM),inactive: 0
6,O=C(N=c1sccn1Cc1ccccc1)c1c[nH]c2ncccc12 (10 µM),inactive: 0
7,CC(C)=C/C=C1\O[C@@H]2CC(C)=CC(=O)[C@@H]2[C@]1(C)O [Bisabolangelone] (10 µM),inactive: 0
8,COc1ccc(C2CC(c3ccc(Cl)cc3)=NN2c2nc(-c3ccncc3)cs2)cc1 (stereo not drawn) [mTOR inhibitor-8] (10 µM),inactive: 0
9,Cc1cc(F)c(Nc2ncnc3cc(OCc4ccccc4)ccc23)cc1O (10 µM),inactive: 0
10,CNCCOc1ccccc1C(C)(C)Nc1nccn(-c2cc(C(=O)NC3CC3)ccc2C)c1=O [p38α inhibitor 2] (10 µM),inactive: 0
11,CCn1c(-c2nonc2N)nc2c(C#CCO)ncc(OCCCN)c21 [AKT Kinase Inhibitor] (10 µM),inactive: 0
12,NC(=O)c1nc(-c2c(F)cccc2Cl)oc1Nc1ccc(C(=O)N2CCOCC2)cc1 (10 µM),inactive: 0
13,O=C(NCc1cccc(O)c1)c1cc2cc(F)ccc2[nH]1 (10 µM),inactive: 0
14,Cc1nc(Nc2ncc(C(=O)Nc3c(C)cccc3Cl)s2)cc(N2CCN(C(=O)CCCCCCC(=O)N[C@H](C(=O)N3C[C@H](O)C[C@H]3C(=O)NCc3ccc(-c4scnc4C)cc3)C(C)(C)C)CC2)n1 (2.5 µM),inactive: 0
15,Cc1cccc(-c2[nH]c(C(C)(C)C)nc2-c2ccc3c(c2)OCO3)n1 (2.5 µM),inactive: 0
16,Cc1cccc(Cn2nc(C)c3c(NC(=O)c4csc5c(N)ncnc45)cccc32)n1 (10 µM),inactive: 0
17,CC[C@@H]1CN(C(=O)NCC(F)(F)F)C[C@@H]1c1cnc2cnc3[nH]ccc3n12 [Upadacitinib] (10 µM),inactive: 0
18,CNS(=O)(=O)C[C@H]1CC[C@H](N(C)c2[nH]cnc3nccc2-3)CC1 [Oclacitinib (maleate)] (10 µM),inactive: 0
19,COc1cc(-c2cnc(N)c(-c3ccc(NC(=O)c4cn(CC5CCOCC5)cc(-c5ccc(C)cn5)c4=O)cc3F)c2)ccc1OC[C@H]1COCCO1 [DS-1205b (free base)] (10 µM),inactive: 0
